Reference: PMC8099431

Sequences of proteins named here, by UniProt entry; tags and fusion partners are left off. A change or cut given only in a name is not applied to a line headed by its entry.
UniProt D9PTN5: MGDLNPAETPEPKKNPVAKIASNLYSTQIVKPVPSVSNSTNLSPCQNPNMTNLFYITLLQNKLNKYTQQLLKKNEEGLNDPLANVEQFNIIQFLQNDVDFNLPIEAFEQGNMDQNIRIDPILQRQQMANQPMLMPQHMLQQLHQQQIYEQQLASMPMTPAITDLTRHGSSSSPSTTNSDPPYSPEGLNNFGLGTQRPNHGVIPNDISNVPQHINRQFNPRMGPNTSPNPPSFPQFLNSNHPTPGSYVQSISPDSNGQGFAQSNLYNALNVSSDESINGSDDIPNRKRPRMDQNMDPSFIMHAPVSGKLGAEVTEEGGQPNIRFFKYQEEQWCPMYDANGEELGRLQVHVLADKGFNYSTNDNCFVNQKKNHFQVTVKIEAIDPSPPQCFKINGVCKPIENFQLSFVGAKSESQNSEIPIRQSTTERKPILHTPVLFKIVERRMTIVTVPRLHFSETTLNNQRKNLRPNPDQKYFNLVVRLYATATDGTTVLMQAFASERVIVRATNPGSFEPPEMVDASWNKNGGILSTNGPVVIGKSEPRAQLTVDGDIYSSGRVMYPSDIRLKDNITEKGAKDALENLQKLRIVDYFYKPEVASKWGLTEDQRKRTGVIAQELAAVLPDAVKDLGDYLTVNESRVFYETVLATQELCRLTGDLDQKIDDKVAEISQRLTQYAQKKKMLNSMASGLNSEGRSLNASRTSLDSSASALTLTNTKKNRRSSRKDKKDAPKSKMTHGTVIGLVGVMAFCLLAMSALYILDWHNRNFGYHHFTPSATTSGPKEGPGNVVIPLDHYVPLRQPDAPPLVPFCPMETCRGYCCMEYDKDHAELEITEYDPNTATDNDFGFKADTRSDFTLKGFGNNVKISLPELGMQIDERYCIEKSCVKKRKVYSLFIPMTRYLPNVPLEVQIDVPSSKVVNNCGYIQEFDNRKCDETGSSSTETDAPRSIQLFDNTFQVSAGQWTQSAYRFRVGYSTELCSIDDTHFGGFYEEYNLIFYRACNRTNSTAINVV

T1: PAN-1^GFP (pan-1^GFP knock-in allele ybq47) (C. elegans) (UniProt Q9U3A0)
T1 sequence: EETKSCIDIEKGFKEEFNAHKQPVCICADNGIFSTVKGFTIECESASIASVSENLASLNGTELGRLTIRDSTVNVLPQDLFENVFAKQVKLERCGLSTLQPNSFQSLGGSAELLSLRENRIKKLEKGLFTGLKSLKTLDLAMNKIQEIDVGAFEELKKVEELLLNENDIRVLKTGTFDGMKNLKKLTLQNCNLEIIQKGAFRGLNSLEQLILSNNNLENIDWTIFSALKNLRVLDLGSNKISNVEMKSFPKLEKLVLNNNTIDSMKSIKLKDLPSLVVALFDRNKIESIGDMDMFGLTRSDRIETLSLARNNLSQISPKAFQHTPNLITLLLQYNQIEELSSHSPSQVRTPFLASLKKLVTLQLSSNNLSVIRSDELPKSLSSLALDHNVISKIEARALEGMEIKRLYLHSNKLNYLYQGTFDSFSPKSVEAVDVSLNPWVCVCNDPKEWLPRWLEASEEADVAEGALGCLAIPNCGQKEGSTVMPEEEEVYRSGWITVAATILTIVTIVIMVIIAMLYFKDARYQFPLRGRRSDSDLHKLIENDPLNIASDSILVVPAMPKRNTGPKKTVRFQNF

T2: GFP::MYRF-1::Flag (transgene myrf-1pro-GFP::myrf-1::Flag, ybqEx164) (C. elegans) (UniProt G5EFI7)
T2 sequence: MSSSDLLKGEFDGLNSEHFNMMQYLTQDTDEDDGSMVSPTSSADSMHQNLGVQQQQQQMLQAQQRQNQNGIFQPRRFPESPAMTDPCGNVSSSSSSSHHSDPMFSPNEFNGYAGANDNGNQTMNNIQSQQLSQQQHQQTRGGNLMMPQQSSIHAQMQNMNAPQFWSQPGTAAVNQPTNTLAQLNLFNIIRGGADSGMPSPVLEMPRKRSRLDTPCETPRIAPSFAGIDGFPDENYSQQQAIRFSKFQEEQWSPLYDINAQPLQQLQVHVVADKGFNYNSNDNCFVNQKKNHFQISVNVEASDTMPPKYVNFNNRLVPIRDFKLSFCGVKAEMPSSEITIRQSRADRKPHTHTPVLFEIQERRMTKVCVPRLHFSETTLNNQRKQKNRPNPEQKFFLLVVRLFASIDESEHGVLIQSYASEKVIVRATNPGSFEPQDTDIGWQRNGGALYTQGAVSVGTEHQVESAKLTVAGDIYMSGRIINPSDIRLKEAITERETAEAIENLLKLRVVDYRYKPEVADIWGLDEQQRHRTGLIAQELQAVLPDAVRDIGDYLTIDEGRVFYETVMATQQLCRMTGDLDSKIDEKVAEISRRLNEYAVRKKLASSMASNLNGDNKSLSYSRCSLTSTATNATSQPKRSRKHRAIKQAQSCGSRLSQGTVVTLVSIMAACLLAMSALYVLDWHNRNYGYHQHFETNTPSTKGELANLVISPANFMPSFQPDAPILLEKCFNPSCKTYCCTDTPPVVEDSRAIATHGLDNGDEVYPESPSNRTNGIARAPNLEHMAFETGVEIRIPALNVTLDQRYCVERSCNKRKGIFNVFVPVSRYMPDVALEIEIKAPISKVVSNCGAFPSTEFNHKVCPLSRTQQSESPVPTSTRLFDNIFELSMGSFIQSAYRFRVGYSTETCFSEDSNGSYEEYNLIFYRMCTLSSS

B1: PAN-1 (M88.6), endogenous (protein, UniProt Q9U3A0 19-594)
chain: T1 sequence
B2: MYRF-1, endogenous (protein, UniProt G5EFI7 1-931)
chain: T2 sequence

Assays:
Assay in all cases: affinity purification with mass spectrometry; lysates of cryo-milled worms expressing the GFP-tagged protein (lysis buffer with Tris-HCl pH 8.0, NaCl, Triton-X100, glycerol); homemade anti-GFP beads, 1 h at 4°C; eluted with glycine-HCl pH 2.5; LC-MS/MS; hits ranked by WD-score against 71 unrelated IP-MS samples
[1] = biological target: T1, PAN-1^GFP (pan-1^GFP knock-in allele ybq47) (C. elegans)
[2] = biological target: T2, GFP::MYRF-1::Flag (transgene myrf-1pro-GFP::myrf-1::Flag, ybqEx164) (C. elegans)
[3] = biological target: GFP::MYRF-2 (transgene myrf-2pro-GFP::myrf-2, ybqIs128) (C. elegans) (UniProt D9PTN5)

Molecule	binding [1]	binding [2]	binding [3]
MYRF-2, endogenous (from UniProt D9PTN5-4)	binds	–	–
B1	–	binds	binds
B2	binds	–	–

No constants are given. Whether binding was seen depends on the method and setting. In cells and extracts the contact can be indirect. Here binding means that the protein was enriched with, or labelled near, the bait; the list need not be complete. For some of these results: Sequences can lack the tags named with a protein.
